Test results from publication PMC9120517.
No constants are given. Whether binding was seen depends on the method and setting. Binding seen in cells or lysates may run through a third protein. Here binding means that the protein was enriched with, or labelled near, the bait; the list need not be complete.

Amino acid sequences for entries named in this document (tags omitted).
UniProt P04350: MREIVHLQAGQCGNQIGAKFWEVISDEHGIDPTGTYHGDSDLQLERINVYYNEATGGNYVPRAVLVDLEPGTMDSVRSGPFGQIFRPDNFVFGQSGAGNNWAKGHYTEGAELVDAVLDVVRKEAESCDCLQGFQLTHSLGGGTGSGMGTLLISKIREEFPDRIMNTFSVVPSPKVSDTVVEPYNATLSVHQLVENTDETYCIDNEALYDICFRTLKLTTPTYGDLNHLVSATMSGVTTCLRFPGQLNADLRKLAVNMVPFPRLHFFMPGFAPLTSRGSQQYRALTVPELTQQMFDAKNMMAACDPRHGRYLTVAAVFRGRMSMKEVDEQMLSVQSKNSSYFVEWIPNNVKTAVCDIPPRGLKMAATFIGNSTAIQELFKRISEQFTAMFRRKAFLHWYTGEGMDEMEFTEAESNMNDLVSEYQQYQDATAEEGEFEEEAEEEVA
UniProt P35579: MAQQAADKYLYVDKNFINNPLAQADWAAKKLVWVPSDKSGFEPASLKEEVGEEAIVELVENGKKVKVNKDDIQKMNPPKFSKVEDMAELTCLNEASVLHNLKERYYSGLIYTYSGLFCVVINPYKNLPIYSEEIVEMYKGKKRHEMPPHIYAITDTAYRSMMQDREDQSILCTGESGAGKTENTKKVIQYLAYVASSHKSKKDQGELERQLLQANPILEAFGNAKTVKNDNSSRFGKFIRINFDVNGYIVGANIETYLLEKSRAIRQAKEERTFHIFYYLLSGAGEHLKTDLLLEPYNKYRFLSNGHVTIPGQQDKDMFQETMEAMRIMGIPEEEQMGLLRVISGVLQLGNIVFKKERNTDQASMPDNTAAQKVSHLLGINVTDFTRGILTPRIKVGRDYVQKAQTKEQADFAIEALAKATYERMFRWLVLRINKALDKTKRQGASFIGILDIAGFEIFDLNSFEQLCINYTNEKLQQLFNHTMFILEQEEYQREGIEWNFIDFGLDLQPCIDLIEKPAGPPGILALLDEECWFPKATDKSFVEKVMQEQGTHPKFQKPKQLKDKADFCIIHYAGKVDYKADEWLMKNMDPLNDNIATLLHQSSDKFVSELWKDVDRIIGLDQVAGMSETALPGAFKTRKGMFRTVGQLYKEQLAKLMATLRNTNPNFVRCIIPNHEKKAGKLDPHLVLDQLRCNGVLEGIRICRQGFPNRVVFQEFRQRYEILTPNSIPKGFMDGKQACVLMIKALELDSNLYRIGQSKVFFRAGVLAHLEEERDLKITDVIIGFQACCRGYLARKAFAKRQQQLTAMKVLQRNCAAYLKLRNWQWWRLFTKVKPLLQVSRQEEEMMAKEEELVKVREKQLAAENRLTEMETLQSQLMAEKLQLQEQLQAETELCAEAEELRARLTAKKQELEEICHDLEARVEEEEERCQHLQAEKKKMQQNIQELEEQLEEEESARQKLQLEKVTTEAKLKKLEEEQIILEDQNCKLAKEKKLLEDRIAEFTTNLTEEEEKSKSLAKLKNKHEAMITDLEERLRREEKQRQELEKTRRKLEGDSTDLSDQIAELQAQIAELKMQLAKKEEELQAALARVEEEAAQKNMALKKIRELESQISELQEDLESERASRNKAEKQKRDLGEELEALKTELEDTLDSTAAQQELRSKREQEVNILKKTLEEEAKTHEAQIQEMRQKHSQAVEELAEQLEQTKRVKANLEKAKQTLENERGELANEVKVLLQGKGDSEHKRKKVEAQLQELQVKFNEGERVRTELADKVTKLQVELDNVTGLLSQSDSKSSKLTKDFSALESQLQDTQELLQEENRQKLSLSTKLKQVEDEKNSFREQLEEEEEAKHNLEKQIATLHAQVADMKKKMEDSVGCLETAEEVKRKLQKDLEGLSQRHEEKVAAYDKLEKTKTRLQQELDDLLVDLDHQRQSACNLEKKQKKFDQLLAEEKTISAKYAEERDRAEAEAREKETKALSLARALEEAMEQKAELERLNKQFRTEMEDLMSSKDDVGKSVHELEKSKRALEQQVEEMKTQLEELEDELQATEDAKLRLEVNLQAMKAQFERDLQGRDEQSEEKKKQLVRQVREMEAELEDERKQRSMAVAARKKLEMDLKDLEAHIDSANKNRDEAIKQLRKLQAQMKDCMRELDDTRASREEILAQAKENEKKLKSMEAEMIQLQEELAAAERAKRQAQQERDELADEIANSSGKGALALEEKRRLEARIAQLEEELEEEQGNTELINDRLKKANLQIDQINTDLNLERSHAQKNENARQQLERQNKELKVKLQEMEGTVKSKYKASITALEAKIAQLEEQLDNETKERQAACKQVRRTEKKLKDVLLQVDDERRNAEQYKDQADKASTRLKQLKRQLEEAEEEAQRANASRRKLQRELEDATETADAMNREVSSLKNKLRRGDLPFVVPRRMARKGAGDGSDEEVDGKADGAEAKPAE

Molecular target: Human tubulin beta class IVa (TUBB4A) (human (endogenous in DU145)) (UniProt P04350)
Experiment: affinity purification with mass spectrometry; DU145 lysate immunoprecipitated with TUBB4A antibody (ab222822, 1:200); Coomassie-stained gel bands excised, trypsin digested, LC-MS/MS

## MYH9 (myosin heavy chain 9) (from UniProt P35579 1-1960)
  binding: binds
